These results are taken from doi:10.1101/2023.08.10.549595.

These are yes or no findings as the source states them, for the method shown. Binding seen in cells or lysates may run through a third protein. Binding can be weak; no strength is given.

For the assay, the target named is FLAG-TEV-Rad9 (Xenopus laevis). Nature of the assay: co-purification.

B1: Hus1 (protein, UniProt Q8JHD8 1-282)
chain: MRFRSKIVDVSCLNHFTRVINTITKLTKTCTLRLTSSNLYFILTDKVANGGVSMWCELSQGNFFDEYQMEGVCVEQNEIFLELIPENLSRALKTAQNSKSVKIKLTNKHCPCLTVALELPSLSSSSRIVTHDIPVSVIPRRLWNDFKEPSVPEFDVSIYLPALKTMKNVVERMKNLSNFIVIEANRNGEMNLKIETDLVSVSTHFKDLGNPPWVSDDASQNSTQEKDTMAEARIDIRKLLQFLAGQQVNPTKAICNIVHKRMVHFILLHEDVSLQYFIPALA
As to B1, the binding result was “binds”.
